Measurements as given in PubChem BioAssay AID2685 (National Center for Advancing Translational Sciences (NCATS), 2010).
Some of the results follow. The main result of the screen is listed elsewhere. These columns were measured beside it and carry no call. The list favours compounds with an active or inconclusive main result. Potencies come from curve fits of mixed quality, noted in brackets.

Assay: qHTS Assay for Lipid Storage Modulators in Drosophila S3 Cells;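 as to cell number change: cells counted by Cell Tracker Red CMTPX staining in the red channel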
Conditions: BODIPY lipid droplet fluorescence, 18-24 h; for cell number change: measured here: cell count max response, cells fed with added oleic acid
Method in brief: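 Drosophila S3 cells got compounds at several concentrations plus oleic acid (400 uM solution). Laser-scanning cytometry with 488 nm excitation read lipid droplets at 500-530 nm and cells at 575-640 nm. Percent activity was relative to 20 uM Triacsin C.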

[1] = measured here: cell number channel AC50, cells fed with added oleic acid
[2] = measured here: lipid fluorescence (Fed channel) AC50, cells fed with added oleic acid

Compound: CC(Oc1ccc(C(=O)c2ccccc2)cc1)C(=O)Nc1ccc(S(N)(=O)=O)cc1 (configuration not stated)
- cell number change: 117%
- AC50 [1]: 1.64 µM [falling, partial curve]
- AC50 [2]: 29.1 µM [rising, single point]

Compound: COc1ccc(O)c(C(=O)c2cnn(C(=O)c3cccc(S(=O)(=O)N4CCOCC4)c3)c2)c1
- cell number change: -9.56%
- AC50 [1]: 0.184 µM [rising, full curve, poor fit]

Compound: Cn1c2cc(B(O)O)sc2c2cnn(Cc3c(F)cccc3F)c(=O)c21
- cell number change: 9.85%
- AC50 [2]: 1.03 µM [rising, partial curve]

Compound: COC(=O)COc1cccc(NC(=O)c2cc(OC)cc(OC)c2)c1
- cell number change: 135%
- AC50 [1]: 20.6 µM [rising, partial curve]
- AC50 [2]: 29.1 µM [rising, partial curve]

Compound: COc1ccc(C)cc1NC(=O)CO/N=C(\N)CC(=O)NC1CCCCC1
- cell number change: -9.51%
- AC50 [2]: 8.2 µM [falling, single point]

Compound: CC(=O)Nc1cccc(NC(=O)c2ccccc2OCc2c(C)noc2C)c1
- cell number change: -50%
- AC50 [1]: 0.651 µM [rising, partial curve, poor fit]

Compound: CCc1c(C)nc(SCCOc2ccc(OC(C)C)cc2)[nH]c1=O
- cell number change: -31%
- AC50 [1]: 1.3 µM [falling, full curve, poor fit]

Compound: CC(=O)Nc1ccc(S(=O)(=O)Nc2ccc(S(=O)(=O)Nc3nccs3)cc2)cc1
- cell number change: 33.3%
- AC50 [1]: 14.6 µM [rising, partial curve, poor fit]
- AC50 [2]: 5.17 µM [falling, single point]

Compound: COc1ccc(-c2n[nH]c(C)c2-c2ccc(Cl)cc2)c(O)c1
- cell number change: -21.7%
- AC50 [2]: 29.1 µM [falling, single point]

Compound: CCOc1ccc(C(NC(C)=O)c2ccc(OC)c(OC)c2)cc1 (configuration not stated)
- cell number change: -50.3%

Compound: COc1ccc(/C(O)=C2\C(=O)C(=O)N(CCN(C)C)C2c2cccc(OC)c2OC)cc1Cl (configuration not stated)
- cell number change: 9.3%

Compound: O=C(Nc1ccc2ccccc2c1)c1ccc(Br)o1
- cell number change: -4.34%

Compound: Cc1cc(SCC(=O)Nc2ccccc2)nc(C)n1
- cell number change: 30%
- AC50 [1]: 0.13 µM [rising, full curve, poor fit]

Compound: Cc1ccc2nc(SCC(=O)NCc3ccco3)c(C)cc2c1
- cell number change: 30.2%

Compound: COc1ccc(CN2CC(C(=O)NCc3ccccn3)CC2=O)cc1 (configuration not stated)
- AC50 [2]: 0.517 µM [falling, partial curve]

Compound: C=CCn1c(SCC(=O)Nc2c(C)nn(Cc3ccccc3)c2C)nnc1C(O)c1ccccc1 (configuration not stated)
- cell number change: 152%
- AC50 [1]: 18.4 µM [rising, single point]
- AC50 [2]: 18.4 µM [rising, single point]

Compound: Oc1cccc(Nc2nc(N3CCOCC3)nc(N3CCOCC3)n2)c1
- cell number change: -13.3%
- AC50 [2]: 6.51 µM [falling, partial curve, poor fit]

Compound: Cc1cc(C)c2sc(NC(=O)c3ccc([N+](=O)[O-])o3)nc2c1
- cell number change: -7.2%
- AC50 [2]: 0.731 µM [falling, full curve, poor fit]

Compound: CC1CC(C)CN(CCCNC(=O)c2cc3c(s2)-c2ccccc2OC3)C1 (configuration not stated)
- cell number change: 3.96%

Compound: Fc1ccc(NC(=S)NC23CN4CN(CN(C4)C2)C3)cc1
- cell number change: -18.5%
- AC50 [2]: 0.517 µM [falling, full curve, poor fit]

Compound: Cc1ccc(N(CN2C(=O)NC(C)(C)C2=O)CN2C(=O)NC(C)(C)C2=O)cc1
- cell number change: -6.57%
- AC50 [2]: 2.91 µM [falling, full curve]

Compound: Cc1ccc(C(=O)NCCCNCCCN(C)C)cn1
- cell number change: -34.9%
- AC50 [1]: 2.31 µM [falling, full curve]
- AC50 [2]: 0.731 µM [falling, full curve]

Compound: CC1CC(C)(C)NC(=S)N1CC(=O)N1CCN(Cc2ccc3c(c2)OCO3)CC1 (configuration not stated)
- AC50 [2]: 6.51 µM [rising, partial curve]

Compound: O=C(NCCc1ccccc1)c1ccc(Cl)c(S(=O)(=O)N2CCCC2)c1
- cell number change: -23.2%
- AC50 [2]: 29.1 µM [falling, partial curve, poor fit]

Compound: CCOc1ccc(/C=C/C2=NNC(=O)CC2)cc1
- cell number change: -7.54%

Compound: COc1cc(C(=O)O/N=C(\N)c2ccccn2)cc(OC)c1OC
- cell number change: -9.61%
- AC50 [2]: 0.00461 µM [rising, full curve, poor fit]

Compound: CCOCCCNC(=O)CN1CCN(Cc2ccccc2C)C1=O
- cell number change: -7.35%
- AC50 [2]: 29.1 µM [falling, single point]

Compound: O=C(Nc1cccc(C(F)(F)F)c1)C12CC3CC(CC(C3)C1)C2
- cell number change: -27.3%
- AC50 [2]: 18.4 µM [falling, single point]

Compound: CC(=O)c1c(C)[nH]c(C(=O)N2CCN(S(=O)(=O)c3ccc(F)c(F)c3)CC2)c1C
- cell number change: -25.4%
- AC50 [2]: 0.82 µM [falling, full curve, poor fit]

Compound: O=[N+]([O-])c1ccc(/C=N/NS(=O)(=O)c2ccc(Cl)cc2)o1
- cell number change: 87.5%
- AC50 [1]: 18.4 µM [rising, partial curve, poor fit]
- AC50 [2]: 2.06 µM [falling, partial curve, poor fit]

Compound: CCOC(=O)CCNC(=O)CNC(=O)OCc1ccccc1
- cell number change: 20.4%
- AC50 [2]: 6.51 µM [falling, single point]

Compound: O=C(OCCCOC(=O)c1ccc(O)cc1)c1ccc(O)cc1
- cell number change: -9.63%
- AC50 [2]: 29.1 µM [falling, single point]

Compound: O=Cc1cn(CCOc2ccccc2)c2ccccc12
- cell number change: -24.5%

Compound: Cn1c(CCNC(=O)OC(C)(C)C)n[nH]c1=S
- cell number change: 4.35%
- AC50 [2]: 0.0731 µM [falling, full curve, poor fit]

Compound: CC(C)C1Cc2c(sc3ncnc(NN)c23)CO1 (configuration not stated)
- cell number change: 20.7%
- AC50 [2]: 0.116 µM [rising, full curve, poor fit]

Compound: CCOC(=O)Cn1c(-c2cccnc2Cl)nc2ccccc21
- AC50 [2]: 6.51 µM [falling, single point]

Compound: Cc1ccc(NCc2nnc(SCC(=O)c3ccccc3)o2)c(C)c1
- AC50 [1]: 5.8 µM [rising, single point]
- AC50 [2]: 5.17 µM [rising, single point]

Compound: CCCCNC(=O)c1c[nH]c2ccc(S(=O)(=O)N3CCOCC3)cc2c1=O
- AC50 [2]: 4.61 µM [rising, partial curve]

Compound: CCOc1cc(C(=O)NCCN2C(=O)S/C(=C\c3cccnc3)C2=O)cc(OCC)c1OCC
- cell number change: 24.1%
